Measurements from patent publication US20190248902A1.
These are yes or no findings as the source states them, for the method shown. Some binding calls cover weakened binding; strength is not graded here.

By UniProt entry, the sequences of proteins in these tests, tags left out. Where a name states a change or a piece, a line headed by the entry shows the natural chain unless it says otherwise.
UniProt P07306: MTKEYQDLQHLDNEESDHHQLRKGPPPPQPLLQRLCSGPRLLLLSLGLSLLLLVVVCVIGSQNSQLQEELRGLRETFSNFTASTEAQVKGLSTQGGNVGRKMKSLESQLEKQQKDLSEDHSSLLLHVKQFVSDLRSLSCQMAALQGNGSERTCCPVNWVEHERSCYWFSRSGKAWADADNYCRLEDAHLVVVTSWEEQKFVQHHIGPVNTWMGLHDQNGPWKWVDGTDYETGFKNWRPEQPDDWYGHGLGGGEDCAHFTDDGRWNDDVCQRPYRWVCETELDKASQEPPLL

Target: ASGR-1 on HEPG2 Cells (human) (UniProt P07306)
Assay: FACS or high content imaging on HepG2 cells; Y = signal at least 2x irrelevant IgG

binding	Binder
binds	194A4 (antibody, V domains shown) VH: QVQLVQSGTEVKKPGASLKVSCKASGYTFTVYYLNWVRQAPGQGLEWMGWINPNSGGTNYAQKFQGRVTMTRDTSISTAYMELSRLRSDDTAVYYCARGYDILTGWGQGTLVTVSS VL: EIVLTQSPGTLSLSPGERATLSCRASRGVSNIYLAWYQQKPGQAPRLLIYGASNRATGIPDRFSGSGSGTDFTLTISRLEPEDFAVYYCQHNDYSMFTFGPGTKVDIK
binds	197G3 (antibody, V domains shown) VH: QVQLVESGGGVVQPGRSLRLSCVASGFTFSSHGMHWVRQAPGKGLEWVAVIWYDGSNKNYADSVKGRFTISRDNSKNTLYLQMNSLRAEDTAVYYCARDPSVGYDGMDVWGQGTTVTVSS VL: DIQMTQSPSSLSASVGDRVTITCRASQGIGNHLAWFQQKPGKAPKSLIYAASSLQSGVPSKFSGSRSGTDFSLTISSLQPEDFATYYCQQYSNYPVTFGPGTKVDIK
binds	198G3 (antibody, V domains shown) VH: QVQLVESGGGVVQPGRSLKLSCAASGFTFSTYGMHWVRQAPGKGLEWVAVIWYDGTNKNYADSVKGRFTISRDNSKNTLCLQMNSLRAEDTAVYYCARDQGVGYDGLDVWGQGTTVTVSS VL: DIQMAQSPSSLSASVGDRVTITCRTSQGIGKYLAWFQQKPGKAPKSLLYKASSLQGGVPSKFSGSGSGTDFTLTISSLQPEDFATYYCQQYMTYPLTFGGGTKVEIK
binds	4B1 (antibody, V domains shown) VH: QVQLQESGPGLVKPSETLSLTCSVSGDSISSYSWSWIRQPAGKGLEWIGRIYTSGSTNYIPSLKSRITMSVDTSKKQFSLKLSSVTAADTAVYYCARDLKSSGCLFFDYWGQGTLVTVSS VL: DIQMTQSPSSLSASVGDRVTITCRASHTIRTYLNWYQQKPGKAPKLLIYAASSLQSGVPSRINGSGSGTDFTLTITNLQPEDFATYYCQQSYNISFTFGPGTKVDIK
binds	6G7 (antibody, V domains shown) VH: QVQLVESGGGVVQPGRSLRLSCAASGFTFSSYGMHWVRQTPGKGLEWVAIISYVGKNKYYADSVKGRFTISRDNSKNTLYLQMNSLRAEDTAVYYCARRGNSYGGYGMDVWGQGTTVTVSS VL: DIQMTQSPSSRSASVGDRVTITCQASQDISNYLNWCQQKPGKALKLLIYDASTLETGVPSRFSGSGSGTDFTFTISSVQPEDIATYYCQQYDNVPITFGQGTRLEIK
binds	22G5 (antibody, V domains shown) VH: EVQLLESGGGLVQPGGSLRLSCAASGFTFSSYAMNWVRQAPGMGLEWVSVISRSGGYTYYADSVKGRFTISRDNSKNTLYLQMNSLRAEDTAVYYCASRLAVAGSEAFDIWGQGTLVTVSS VL: DIQMTQSPSSLSASVGDRVTITCRASQNISSYLNWYQQKQGKAPKLLIYAASSLQNGVPSRFSGRGSGTDFTLTISSLQPEDFATYYCQQSYRTPLFTFGPGTKVDFK
binds	176H4 (antibody, V domains shown) VH: QVQLVESGGGVVQPGRSLRLSCAASGFTFSSYGMHWVRQAPGKGLEWVAIIWYDGSYKYYADSVKGRFTISRDNSKNTLYLQMSSLRAEDTAVYYCARDAHDFWSGYFAYWGQGALVTVSS VL: DIVMTQTPLSLSVTPGQPASISCKSSQSLLHGDGKTYLYWYLQKPGQPPQLLIYEVSNRFSGVPDRFSGSGSGTDFTLKISRVEAEDVGIYYCMQSIQIPWTFGQGTRVEIK
binds	48B12 (antibody, V domains shown) VH: EVQLLESGGGLVQPGGSLRLSCAASGFTFSSYAMNWVRQAPGKGLEWVSAISGRGGNTFYADSVKGRFTISRDNSKNTLYLQMNSLRAEDTAVYYCAKRETYNWNYEGFDYWGQGTLVTVSS VL: SYELTQPPSVSVSPGQTARITCSGDALPKKYAYWYQQKSGQAPVLVIYEDSKRPSGIPERFSGSSSGTMATLTISGAQVEDEADYYCNSTDSSGNHVVFGGGTKLTVL
binds	194C10 (antibody, V domains shown) VH: QVQLQQWGAGLLKPSETLSLTCAVSGGSFRYYYWSWIRQPPGKGLEWFGEINHSGSTNYNPSLKSRVTISIDTSKNQFSLKLRSVTAADTAVYYCARDYGAFDIWGQGTMVTVSS VL: EIVLTQSPGTLSLSPGERATLSCRASPSVNSGYLAWYQQKPGQTPRLLIFGASSRATGIPDRFSASGSGADFTLTISRLEPEDFAVYFCQQYESSPWTFGQGTKVEIK
binds	25A4 (antibody, V domains shown) VH: QVLLVQSGAEVKRPGASVKVSCKASGYTFTNYDINWVRQATGQGLEWMGWMYPNSGNTGYAQKFQGRVTMTRNTSISTAYMELSSLRSEDTAVYYCASSSGWYYFDYWGQGTLVTVSS VL: DIVMTQFPDSLAVSLGERATIKCKSSQSVLYSSHNNNYLAWYQQKPGQPPKLLLYWASTRESGVPDRFSGSGSGTEFTLTISSLEAEDVAVYYCQQYYSTPPTFGQGTKVEIK
binds	4A2 (antibody, V domains shown) VH: QVQLVQSGTEVKKPGASVKVSCKASGYTFTNYDINWVRQATGQGLEWMGWMHPNSGNTGYAQKFQGRVTLTRNTSISTAYMELSSLRSEDTAVYYCASSSGWYYFDYWGQGTLVTVSS VL: DIVMTQSPDSLAVSLGERATINCKSSQSILHSSNNNNYLAWFQQKPGQPPKLLLYWASTRESGVPDRFSGSGSGTDFTLTISSLQPEDVAVYYCQQYYNTPVTFGPGTKVGIK
binds	202A3 (antibody, V domains shown) VH: QVQLEQSGAEVKKPGASVKVSCKASGYTFTSYDINWVRQATGQGLEWLGWMNPKRGNTGYAQKFQGRVTMTRNTSISTAHMELSSLRSEDTAVYYCARGRYSREDYYYYYDMDVWGQGTTVTVSS VL: DIQMSQSPSSLSASVGDRVTITCRASQGIRNDLGWYQQKPGKAPKRLICAASRLQSGVPSRFSGSGSGTEFTLTISSLQPEDFAIYYCLQHHDYPFTFGPGTKVDIK
binds	184E7 (antibody, V domains shown) VH: QVQLVQSGAEVKTPGASVKVSCRASGYTFTSYNMHWVRQVPGQGLEWMGWINPNNGGSNYTQKFQGRVTMTRDTSISTAYMELSRLRSDDTAVYYCARKFGDWGQGTLVTVSS VL: DIQMTQSPSSRSASIGERVTITCRASQGISNYLAWIQQKPGTAPKSLIYAASSLQSGVSSRFSGSGFGTDFTITISSVQREDFATYYCQQYNGYPFTFGHGTKVDIK
binds	218G4 (antibody, V domains shown) VH: QVQLVESGGGVVQPGRSLRLSCAASGFTFSSYGLHWVRQAPGKGLEWVAVIWYDGSNKYYADSVKGRFTISRDNSKNTLYLQMNSLRVEDTAVYYCANWYYYYYGMDVWGQGTTVTVSS VL: QSVLTQPPSVSAAPGQKVTISCSGSSSNIGNNYVSWYQQLPGTAPKLLLYDSNKRPSGIPARFSGSKSGTSATLGITGLQTGDEADYYCGTWDSSLNTVVFGGGTKLTVL
binds	198D2 (antibody, V domains shown) VH: QVQLVESGGGVVQPGRSLRLSCAASGFTFRSYGMHWVRQAPGKGLEWVAVIIYDGSYKYYADSVKGRFTISRDNSKNTLYLQMNSLRAEDTAVYYCARTYSGGMDVWGQGTTVTVSS VL: QSVLTQPPSVSAAPGQKVTISCSGSSSNIGSNYVSWYQQLPGTAPKVLIYDNNKRPSGIPDRFSGSKSGTSATLGITGLQTGDEADYYCGTWDSRLNVGVFGGGTKLTVL
binds	4H6 (antibody, V domains shown) VH: QVQLVQSGAEVKKPGASVKVSCKASGYTFTDYYLHWVRQAPGQGLEWMGWIHPNSGGTNYAQKFQGRVTMTRDTSISTAYMGLSSLRSDDTAVYYCARDGTSSFDYWGQGTLVTVSS VL: DIQMTQSPSSVSASVGDRVTITCRASQGISRWLAWYQQKPGKAPKLLIYGASSLQSGVPSRFSGSGSGTDFTLTISSLQPEDFAIYYCQQANSFPFTFGPGTKVDIK
binds	56E5 (antibody, V domains shown) VH: QVQLVQSGAEVKKPGASVKVSCQASGYTFTGYHMHWVRQAPGQGLEWMGWINPNNNATNYAQKFQGRVTMTRDTSISTAYMELRRLRSDDTAVYHCARDGTSSFDYWGQGTLVTVSS VL: DIQMTQSPSSVSASVGDRVTITCRASQGIRKWLAWYQQKPGKAPKLLIYAASSLQSGVPSRFSGSGSGTDFTLTISSLQPEDFATYYCQQANSFPFTFGPGTKVDIK
binds	7E11 (antibody, V domains shown) VH: QVQLVESGGGVVQPGRSLRLSCAASGFTFSSFGMHWVRQAPGKGLEWVAIIWHDGSNKYYADSVKGRFTISRDNSNNTLYLQMSSLRAEDTAVYYCARDLSMGGMDVWGQGTTVTVSS VL: DIQMTQSPSSLSASVGDRVTIACRASQNIISYLNWYQQKPGKAPKFLIYTASSLQSGVPSRFSGSGSGTDFTLTISSLQPEDFAIYYCQQTYSTPLTFGGGTKVEIK
binds	193E7 (antibody, V domains shown) VH: QVQLQQWGAGLLKPSETLSLTCAVYGGSFSGYFWTWIRQPPGKGLEWIGEINHSGSTNYNPSLKSRVTISVDTSKNQFSLKLSSVTAADTAVYYCARDYGADYWGQGTLVAVSA VL: DIQMTQSPSSLSASVGDRVTITCRASQGIRNDLGWYQQKPGKAPKRLIYSASSLQRGVPSRFSGSGSGTEFTLTISSLQPEDFATYYCLQHKRYPLTFGGGTKVEIK
binds	7G4 (antibody, V domains shown) VH: QVQLVESGGGVVQPGRSLRLSCAASGFTFNNYVMHWVRQAPGKGLEWVAVIWYDGSNKYYADSVKGRFTISRDNSKNTLYLQMTSLRAEDTAVYYCAREKYSSNWYDYGMDVWGQGTTVTVSS VL: DIQMTQSPSSLSASVGDRVTITCRASQGIRNDLGWYQQRPGKAPKRLIYAASSLQSGVPSRFSGSGSGTEFTLTISSLQPEDSATYYCLHQYSYPRTFGQGTKVEIK
binds	5E5 (antibody, V domains shown) VH: QVQLVESGGGVVQPGRSLRLSCAASGFTFSNYVMHWVRQAPGKGLEWVAVIWYDGSNKYYADSVKGRFTISRDNSKNTLYLQMNSLRAEDTAVYYCTREVYSSGWYDYGMDVWGQGTTVTVSS VL: DIQMTQSPSSLSASVGDRVTITCRASQGIRNDLGWYQQKPGKAPKRLIYAASSLQSGVPSRFSGSGSGTEFTLTISSLQPEDFATYYCLQHYSYPRTFGQGTKVEVK
binds	7F4 (antibody, V domains shown) VH: QLQLQESGPGLVKPSETLSLTCTVSGGSISRSSYYWGWIRQPPGKGLEWIGNIYYSGATYYNPSLKSRVTISVDTSTNQFSLKLSSVTAADTAVYYCARHSGSWSLDYWGQGTLVTVSS VL: DIQMTQSPSSLSASVGDRVTITCRTSQGIRNDLGWYQQKPGKAPKRLIYAASNLQSGVPSRFSGSGSGTEFTLTISSLQPEDFATYYCLQHSAYPLTFGGGTKVEIK
